Taken from: PubChem BioAssay AID1224830 (NIAID, 2016)

- Test: 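Host factors that control LPS-induced TNF expression in human macrophages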 (primary screen)
- System: human THP-1 monocytic leukaemia cells, TNF dual-luciferase reporter clone, PMA-differentiated to macrophage-like cells
- Reagents: siRNA pool against human genes, 50 nM
- Duration: LPS for 4 h, given about 3 days after siRNA transfection
- Challenge: bacterial LPS (TLR4 ligand), 10 ng/ml
- Measured: 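Ratio of firefly to renilla light, scaled to the plate median and expressed as a robust z-score per replicate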
- Direction: TNF reporter robust z-score: higher = stronger TNF reporter response to LPS
- Active means: 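Each well counts as active if its z-score is over 2.8 or under -1.5; controls are left without a call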
Shown is an unselected part of about 18,000 reagents. Over the whole deposit, about 2,900 (16%) are marked active. 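Calls are made per well; low scores hint the gene aids the LPS response, high scores that it dampens it.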 Repeated entries: four replicate wells of each siRNA pool.

no.	gene knocked down	TNF reporter robust z-score	Outcome
1	WFIKKN1	0.88	inactive
2	WFIKKN1	0.06	inactive
3	WFIKKN1	0.8	inactive
4	WFIKKN1	0.69	inactive
5	HILPDA	-0.57	inactive
6	HILPDA	-0.55	inactive
7	HILPDA	0.25	inactive
8	HILPDA	0.21	inactive
9	AKR1A1	-0.94	inactive
10	AKR1A1	-0.87	inactive
11	AKR1A1	-1.05	inactive
12	AKR1A1	-1.04	inactive
13	SPINT1	-1.68	active
14	SPINT1	0.13	inactive
15	SPINT1	-0.39	inactive
16	SPINT1	0.87	inactive
17	EMP2	0.16	inactive
18	EMP2	0	inactive
19	EMP2	0.31	inactive
20	HORMAD1	1.73	inactive
21	HORMAD1	2.88	active
22	HORMAD1	1.75	inactive
23	HORMAD1	25.5	active
24	LINC02903	0.58	inactive
25	LINC02903	0	inactive
26	LINC02903	0.55	inactive
27	LINC02903	-0.76	inactive
28	GPAT3	0.22	inactive
29	GPAT3	0.42	inactive
30	GPAT3	-1.3	inactive
31	GPAT3	0.7	inactive
32	HPS5	-0.64	inactive
33	HPS5	0.57	inactive
34	HPS5	-0.12	inactive
35	HPS5	0.45	inactive
36	NUMB	2.36	inactive
37	NUMB	2.62	inactive
38	NUMB	0.41	inactive
39	NUMB	2.37	inactive
40	RAMP1	0.55	inactive
41	RAMP1	1.01	inactive
42	RAMP1	-0.1	inactive
43	RAMP1	-0.46	inactive
44	ZNF165	2.53	inactive
45	ZNF165	-0.07	inactive
46	ZNF165	-0.67	inactive
47	ZNF165	0.71	inactive
48	ZNF793	-0.98	inactive
49	ZNF793	-0.35	inactive
50	ZNF793	-0.59	inactive
51	ZNF793	1.64	inactive
52	CNGA1	-1.51	active
53	CNGA1	-1.12	inactive
54	CNGA1	-0.32	inactive
55	CNGA1	0.42	inactive
56	BCKDK	-0.06	inactive
57	BCKDK	0.18	inactive
58	BCKDK	0.08	inactive
59	BCKDK	0.82	inactive
60	IARS1	1.79	inactive
61	IARS1	1.36	inactive
62	IARS1	0.01	inactive
63	IARS1	-0.26	inactive
64	TMEM220	-0.36	inactive
65	TMEM220	-0.93	inactive
66	TMEM220	-1.75	active
67	TMEM220	-1.49	inactive
68	KCNA6	-0.62	inactive
69	KCNA6	-0.11	inactive
70	KCNA6	1.58	inactive
71	KCNA6	-0.13	inactive
72	SASH1	0.45	inactive
73	SASH1	1.7	inactive
74	SASH1	-1.06	inactive
75	SASH1	0.54	inactive
76	PEX6	0.26	inactive
77	PEX6	-0.66	inactive
78	PEX6	0	inactive
79	PEX6	0.13	inactive
80	FAM220A	2.28	inactive
81	FAM220A	0.27	inactive
82	FAM220A	1.37	inactive
83	FAM220A	-0.58	inactive
84	WNK3	-1.47	inactive
85	WNK3	-1.62	active
86	WNK3	-1.71	active
87	WNK3	-1.2	inactive
88	UACA	4.6	active
89	UACA	3.99	active
90	UACA	3.72	active
91	UACA	5.34	active
92	INTS7	1.16	inactive
93	INTS7	1.32	inactive
94	INTS7	2.38	inactive
95	INTS7	1.45	inactive
96	ADGRG5	-0.37	inactive
97	ADGRG5	0.67	inactive
98	ADGRG5	-0.29	inactive
99	ADGRG5	-1.09	inactive
100	CYP4F11	-1.89	active
101	CYP4F11	-0.69	inactive
102	CYP4F11	-1.04	inactive
103	CYP4F11	-0.79	inactive
104	OR52A4P	-0.39	inactive
105	OR52A4P	-0.6	inactive
106	OR52A4P	-1.19	inactive
107	OR52A4P	-1.17	inactive
108	HMGB1	-0.55	inactive
109	HMGB1	-0.93	inactive
110	HMGB1	-1.04	inactive
111	HMGB1	0.16	inactive

13 entries from above, set out differently:
gene knocked down | TNF reporter robust z-score | Outcome
NUMB | 0.41 | inactive
NUMB | 2.37 | inactive
RAMP1 | 0.55 | inactive
RAMP1 | 1.01 | inactive
RAMP1 | -0.1 | inactive
RAMP1 | -0.46 | inactive
ZNF165 | 2.53 | inactive
ZNF165 | -0.07 | inactive
ZNF165 | -0.67 | inactive
ZNF165 | 0.71 | inactive
ZNF793 | -0.98 | inactive
ZNF793 | -0.35 | inactive
ZNF793 | -0.59 | inactive
